Laboratory results: PubChem BioAssay (EPA / NIEHS)
“And” between values parts separate entries of the source, which are not always exact repeats. Equal values may be shown once. Inconclusive means that the source gave no clear call. Such entries were picked first, then a sample of the others. A potency beside an inconclusive call is a rough fit, not a confirmed value. The source made the active and inactive calls. Rule for the calls: active = hit-call score of the fitted dose curve at least 0.9, where 1 is the maximum; inconclusive = response in the unintended direction; inactive = score below 0.9.

These molecules were tested on alkyl and aryl transferase (GSTA2), GSTA2 (gene 2939) (assay: CLD_GSTA2_6hr: CellzDirect (CLD) Gene Expression Assay for alkyl and aryl transferase (GSTA2) at 6 hours (AID 2283666)).
Description: CLD_6hr is a cell-based, multiplexed-readout assay that uses hepatocyte, a human liver primary cell, with measurements taken at 6 hours after chemical dosing in a 96-well plate.CLD_GSTA2_6hr is one of 16 assay component(s) measured or calculated from the CLD_6hr assay. It is designed to make measurements of mRNA induction, a form of inducible reporter, as detected with chemiluminescence signals by Quantitative Nuclease Protection Assay (qNPA) technology.Data from the assay component CLD_GSTA2_6hr was analyzed at the endpoint, CLD_GSTA2_6hr, in the positive analysis fitting direction relative to DMSO as the negative control and baseline of activity. Using a type of inducible reporter, gain-of-signal activity can be used to understand changes in the reporter gene as they relate to the gene GSTA2. Furthermore, this assay endpoint can be referred to as a primary readout. To generalize the intended target to other relatable targets, this assay endpoint is annotated to the transferase intended target family, where subfamily is alkyl and aryl transferase.
Human hepatocyte cultures were treated daily for two consecutive days with fresh dosing solutions containing appropriate concentrations of the 320 ToxCast chemicals (chemical identities were blinded to CellzDirect and other ToxCast collaborators), vehicle control (0.2% DMSO), and positive control inducers as summarized in Table 1. Due to the large number of treatment groups and chemicals examined, the ToxCast chemicals were divided into two groups (spanning two independent cultures of hepatocytes from separate donor preparations (Hu778: ToxCast plates 1 and 2; Hu776: ToxCast plates 3 and 4). Each preparation of human hepatocyte cultures was treated with respective vehicle control, medium only control, set of six positive controls/reference chemicals for the five hepatic receptor pathways, and a subset of eight of the ToxCast chemicals (indoxacarb, pyrithiobac-sodium, norflurazon, cyhalofop-butyl, methomyl, thiram, acetochlor, and propiconazole). These replicate data, coupled with internal replicates designed within the blinded ToxCast chemical library, provided additional data to evaluate interindividual differences between hepatocyte preparations and their potential impact on chemical profiles.Cell morphology and integrity were evaluated using phase-contrast microscopy as an indicator of hepatocyte cell health (Tyson & Green, 1987). Cultures for each treatment group (i.e., media, vehicle [0.2% DMSO], positive control inducers [multiple concentrations], and the ToxCast chemicals [multiple concentrations]) were observed and cell morphology was assessed relative to vehicle control cultures at each harvest time point (0, 6, 24, or 48 h). […] Images were evaluated at the conclusion of the study to assess changes in cell integrity and account for the effects of chemical exposure on uncharacteristic changes in concentration-dependent gene expression profiles. The results from these determinations of apparent cytotoxicity were annotated (yes/no) alongside the corresponding qNPA data for reference.At the conclusion of each treatment period, hepatocyte cultures (96-well) were washed with 1 volume of HBSS, lysed by addition of 25 ul ArrayPlate lysis buffer (HTG, Tucson, AZ), and 70 ul/well of Denaturation Oil, denatured by incubation at 95C for 10 min, and frozen at approximately -70C until analysis by nuclease protection assay (qNPA) (Roberts et al., 2007). For qNPA analysis, cell lysates were thawed at 50C for approximately 30 min, qNPA probes were added, and samples were incubated at 95C for 10 min to begin the detection process by denaturing the target RNA, dissociating the duplexes and secondary structure hybridization. At the conclusion of the hybridization period, S1 nuclease reagent was added to each sample to digest all nonprotected nucleotides at 50C for 60-90 min. […]
`COc1nn(CSP(=S)(OC)OC)c(=O)s1` was tested, and the AC50 was inconclusive: 20 µM.
In the case of `O=[N+]([O-])c1cc(C(F)(F)F)c(Cl)c([N+](=O)[O-])c1Nc1ncc(C(F)(F)F)cc1Cl`, the AC50 is reported as inconclusive: 38.2 µM.
For `Nc1c(Cl)c(F)nc(OCC(=O)O)c1Cl`, the AC50 was inconclusive: 20 µM.
For `CCCCOC(=O)c1ccccc1C(=O)OCCCC`, the AC50 was inconclusive: 20 µM and inconclusive: 3.97 µM.
With `CC(C)NC(=O)N1CC(=O)N(c2cc(Cl)cc(Cl)c2)C1=O` the AC50 was inconclusive: 20 µM.
For `Cc1[nH]c(=O)n(C(C)(C)C)c(=O)c1Cl`, the AC50 was inconclusive: 20 µM.
`COc1cc(OC)nc(NC(=O)NS(=O)(=O)c2ncccc2OCC(F)(F)F)n1` was tested, and the AC50 was inconclusive: 0.0004 µM.
For `N#Cc1c(Cl)c(Cl)c(Cl)c(C#N)c1Cl`, the outcome was “inactive”.
With `CCSC(=O)N1CCCCCC1` the AC50 was inconclusive: 20 µM.
For `Cc1cc(C)nc(Nc2ccccc2)n1`, the AC50 was inconclusive: 20 µM.
For `C[N+]1(C)CCCCC1`, the outcome was “inactive”.
In the case of `O=S1OCC2C(CO1)C1(Cl)C(Cl)=C(Cl)C2(Cl)C1(Cl)Cl` (stereo not given), the AC50 is reported as inconclusive: 20 µM.
In the case of `CSc1nnc(C(C)(C)C)c(=O)n1N`, the AC50 is reported as inconclusive: 0.000825 µM.
With `CCc1cnc(C2=NC(C)(C(C)C)C(=O)N2)c(C(=O)O)c1` (stereo not given) the outcome was “inactive”.
In the case of `Oc1ccc(Cl)cc1Cc1ccccc1`, the outcome is reported as “inactive”.
For `CCCN(CCC)c1c([N+](=O)[O-])cc(S(N)(=O)=O)cc1[N+](=O)[O-]`, the AC50 was inconclusive: 20 µM.
`CNC(=O)Oc1cccc2ccccc12` was tested, and the AC50 was inconclusive: 20 µM.
For `COc1nc(NC(C)C)nc(NC(C)C)n1`, the outcome was “inactive”.
In the case of `OC(c1ccc(Cl)cc1)(c1ccc(Cl)cc1)C(Cl)(Cl)Cl`, the AC50 is reported as inconclusive: 20 µM.
With `COC(=O)NC(=S)Nc1ccccc1NC(=S)NC(=O)OC` the AC50 was inconclusive: 20 µM.
`Cc1c(COC(=O)[C@@H]2[C@H](/C=C(\Cl)C(F)(F)F)C2(C)C)cccc1-c1ccccc1` was tested, and the AC50 was inconclusive: 4.95e-05 µM.
In the case of `Cn1c(-c2ccccc2)cc(-c2ccccc2)[n+]1C`, the AC50 is reported as inconclusive: 0.122 µM.
For `CCN(CC)C(=O)SCc1ccc(Cl)cc1`, the outcome was “inactive”.
In the case of `CCCOCC(=Nc1ccc(Cl)cc1C(F)(F)F)n1ccnc1`, the outcome is reported as “inactive”.
`O=C1c2ccccc2C(=O)N1SC(Cl)(Cl)Cl` was tested, and the AC50 was inconclusive: 20 µM.
`CCN(CC)c1nc(C)cc(OP(=S)(OC)OC)n1` was tested, and the AC50 was inconclusive: 5.19 µM.
In the case of `CCON=C(CC)C1=C(O)CC(c2c(C)cc(C)cc2C)CC1=O` (stereo not given), the outcome is reported as “inactive”.
`CS(=O)(=O)c1cc(C(F)(F)F)ccc1C(=O)c1cnoc1C1CC1` was tested, and the AC50 was inconclusive: 20 µM.
With `CC1(C)C(C(=O)OC(C#N)c2cccc(Oc3ccccc3)c2)C1(C)C` (stereo not given) the AC50 was inconclusive: 20 µM.
`COP(=S)(OC)Oc1ccc([N+](=O)[O-])cc1` was tested, and the AC50 was inconclusive: 20 µM.
In the case of `CNC(=O)Oc1cccc2c1OC(C)(C)O2`, the outcome is reported as “inactive”.
For `Clc1nc(Cl)nc(Nc2ccccc2Cl)n1`, the AC50 was inconclusive: 0.016 µM.
With `CN=C=S` the outcome was “inactive”.
In the case of `CC(C)(C)C(=O)C(Oc1ccc(Cl)cc1)n1cncn1` (stereo not given), the outcome is reported as “inactive”.
With `CNC(=O)N(C)c1nnc(C(C)(C)C)s1` the outcome was “inactive”.
`COC(=O)C(C)Oc1ccc(Oc2ccc(Cl)cc2Cl)cc1` (stereo not given) was tested, and the AC50 was inconclusive: 20 µM and the outcome was “inactive”.
With `COc1ccc(-c2ccccc2)cc1NNC(=O)OC(C)C` the AC50 was inconclusive: 20 µM.
With `CN(C)NC(=O)CCC(=O)O` the AC50 was inconclusive: 20 µM.
With `CCOc1nc(F)cc2nc(S(=O)(=O)Nc3c(Cl)cccc3Cl)nn12` the AC50 was inconclusive: 0.0004 µM.
